This test deals with Integrator subunit INTS1 (human (endogenous in H9 hESC-derived NPCs)) (UniProt Q8N201). Nature of the test: co-IP.

The chains behind the UniProt entries cited, without tags or fusion partners.
UniProt Q8N201: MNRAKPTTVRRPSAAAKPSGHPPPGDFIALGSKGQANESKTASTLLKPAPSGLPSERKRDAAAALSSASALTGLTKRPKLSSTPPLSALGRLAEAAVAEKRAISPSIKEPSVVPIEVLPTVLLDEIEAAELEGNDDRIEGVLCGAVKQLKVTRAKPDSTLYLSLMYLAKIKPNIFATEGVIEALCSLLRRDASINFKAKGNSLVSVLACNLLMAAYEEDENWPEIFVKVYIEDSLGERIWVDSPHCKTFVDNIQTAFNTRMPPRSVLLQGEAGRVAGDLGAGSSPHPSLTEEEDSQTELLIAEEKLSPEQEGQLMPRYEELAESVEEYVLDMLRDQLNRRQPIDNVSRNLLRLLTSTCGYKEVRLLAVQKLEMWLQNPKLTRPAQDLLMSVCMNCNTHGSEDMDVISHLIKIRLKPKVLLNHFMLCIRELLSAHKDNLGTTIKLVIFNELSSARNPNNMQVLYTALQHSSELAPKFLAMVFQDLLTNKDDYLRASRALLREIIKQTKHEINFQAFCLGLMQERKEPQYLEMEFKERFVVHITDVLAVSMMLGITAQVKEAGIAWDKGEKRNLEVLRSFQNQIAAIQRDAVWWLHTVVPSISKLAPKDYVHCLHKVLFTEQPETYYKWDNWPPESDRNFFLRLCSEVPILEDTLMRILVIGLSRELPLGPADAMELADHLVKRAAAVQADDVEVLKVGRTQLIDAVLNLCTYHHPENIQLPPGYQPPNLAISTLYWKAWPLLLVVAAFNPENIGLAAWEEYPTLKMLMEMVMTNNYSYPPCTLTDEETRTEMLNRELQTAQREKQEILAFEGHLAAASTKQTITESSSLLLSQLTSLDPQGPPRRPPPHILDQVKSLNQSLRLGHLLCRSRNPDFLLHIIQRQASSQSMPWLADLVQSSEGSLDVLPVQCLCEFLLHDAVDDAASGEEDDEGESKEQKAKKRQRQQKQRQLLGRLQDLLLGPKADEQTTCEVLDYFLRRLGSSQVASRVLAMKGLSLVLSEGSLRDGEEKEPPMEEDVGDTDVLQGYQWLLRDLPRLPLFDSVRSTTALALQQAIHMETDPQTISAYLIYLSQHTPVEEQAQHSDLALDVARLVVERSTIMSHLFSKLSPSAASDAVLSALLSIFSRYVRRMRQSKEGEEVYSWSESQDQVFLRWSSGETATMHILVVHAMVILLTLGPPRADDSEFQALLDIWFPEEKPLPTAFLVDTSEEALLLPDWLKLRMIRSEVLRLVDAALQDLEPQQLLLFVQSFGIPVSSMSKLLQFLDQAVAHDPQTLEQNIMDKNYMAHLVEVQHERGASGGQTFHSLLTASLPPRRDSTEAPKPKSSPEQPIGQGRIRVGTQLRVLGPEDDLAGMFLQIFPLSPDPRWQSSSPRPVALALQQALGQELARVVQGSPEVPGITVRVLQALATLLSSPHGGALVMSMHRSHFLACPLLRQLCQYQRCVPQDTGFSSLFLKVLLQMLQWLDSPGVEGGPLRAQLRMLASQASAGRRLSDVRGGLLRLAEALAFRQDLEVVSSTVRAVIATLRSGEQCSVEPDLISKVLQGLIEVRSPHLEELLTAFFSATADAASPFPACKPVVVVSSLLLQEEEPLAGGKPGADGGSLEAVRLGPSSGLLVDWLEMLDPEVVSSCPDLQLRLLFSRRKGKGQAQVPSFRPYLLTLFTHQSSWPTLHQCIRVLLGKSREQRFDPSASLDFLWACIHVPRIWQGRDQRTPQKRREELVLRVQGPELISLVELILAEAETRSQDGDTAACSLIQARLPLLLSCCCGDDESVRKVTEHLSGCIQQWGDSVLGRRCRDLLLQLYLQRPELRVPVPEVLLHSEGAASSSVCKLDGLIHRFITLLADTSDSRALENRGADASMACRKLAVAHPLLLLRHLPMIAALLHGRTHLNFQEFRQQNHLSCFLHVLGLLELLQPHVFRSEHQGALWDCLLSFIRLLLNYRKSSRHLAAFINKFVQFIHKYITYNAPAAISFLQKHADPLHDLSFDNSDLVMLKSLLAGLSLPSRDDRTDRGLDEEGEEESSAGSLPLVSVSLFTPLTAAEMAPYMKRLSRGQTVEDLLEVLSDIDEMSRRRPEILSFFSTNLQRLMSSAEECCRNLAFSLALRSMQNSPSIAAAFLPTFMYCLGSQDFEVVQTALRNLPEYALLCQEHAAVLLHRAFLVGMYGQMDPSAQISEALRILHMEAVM
UniProt Q75QN2: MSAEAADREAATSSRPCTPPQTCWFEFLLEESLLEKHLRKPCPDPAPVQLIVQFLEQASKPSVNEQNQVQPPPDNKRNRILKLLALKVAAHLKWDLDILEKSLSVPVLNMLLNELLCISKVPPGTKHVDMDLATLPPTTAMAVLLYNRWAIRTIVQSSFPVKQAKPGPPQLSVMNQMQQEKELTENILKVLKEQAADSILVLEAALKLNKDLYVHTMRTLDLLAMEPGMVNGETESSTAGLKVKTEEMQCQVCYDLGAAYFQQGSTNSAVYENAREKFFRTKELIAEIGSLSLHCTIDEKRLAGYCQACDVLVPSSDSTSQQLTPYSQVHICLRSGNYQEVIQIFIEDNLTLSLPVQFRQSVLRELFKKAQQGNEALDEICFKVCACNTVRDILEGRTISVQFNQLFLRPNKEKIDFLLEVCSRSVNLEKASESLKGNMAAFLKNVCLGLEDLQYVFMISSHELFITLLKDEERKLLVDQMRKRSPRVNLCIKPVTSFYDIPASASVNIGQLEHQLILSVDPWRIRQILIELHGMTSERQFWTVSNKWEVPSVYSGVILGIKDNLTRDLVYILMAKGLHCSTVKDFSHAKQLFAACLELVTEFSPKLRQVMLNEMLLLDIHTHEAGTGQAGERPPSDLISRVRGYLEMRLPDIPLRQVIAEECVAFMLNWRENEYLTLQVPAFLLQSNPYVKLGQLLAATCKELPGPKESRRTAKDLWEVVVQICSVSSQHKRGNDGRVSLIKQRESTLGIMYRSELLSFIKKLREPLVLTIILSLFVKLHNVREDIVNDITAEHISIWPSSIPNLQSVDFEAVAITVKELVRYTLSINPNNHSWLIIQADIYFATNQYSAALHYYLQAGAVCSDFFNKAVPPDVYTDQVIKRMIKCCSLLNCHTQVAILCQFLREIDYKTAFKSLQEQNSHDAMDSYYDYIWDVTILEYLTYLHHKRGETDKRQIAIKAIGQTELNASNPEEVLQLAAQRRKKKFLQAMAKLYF
UniProt Q96HW7: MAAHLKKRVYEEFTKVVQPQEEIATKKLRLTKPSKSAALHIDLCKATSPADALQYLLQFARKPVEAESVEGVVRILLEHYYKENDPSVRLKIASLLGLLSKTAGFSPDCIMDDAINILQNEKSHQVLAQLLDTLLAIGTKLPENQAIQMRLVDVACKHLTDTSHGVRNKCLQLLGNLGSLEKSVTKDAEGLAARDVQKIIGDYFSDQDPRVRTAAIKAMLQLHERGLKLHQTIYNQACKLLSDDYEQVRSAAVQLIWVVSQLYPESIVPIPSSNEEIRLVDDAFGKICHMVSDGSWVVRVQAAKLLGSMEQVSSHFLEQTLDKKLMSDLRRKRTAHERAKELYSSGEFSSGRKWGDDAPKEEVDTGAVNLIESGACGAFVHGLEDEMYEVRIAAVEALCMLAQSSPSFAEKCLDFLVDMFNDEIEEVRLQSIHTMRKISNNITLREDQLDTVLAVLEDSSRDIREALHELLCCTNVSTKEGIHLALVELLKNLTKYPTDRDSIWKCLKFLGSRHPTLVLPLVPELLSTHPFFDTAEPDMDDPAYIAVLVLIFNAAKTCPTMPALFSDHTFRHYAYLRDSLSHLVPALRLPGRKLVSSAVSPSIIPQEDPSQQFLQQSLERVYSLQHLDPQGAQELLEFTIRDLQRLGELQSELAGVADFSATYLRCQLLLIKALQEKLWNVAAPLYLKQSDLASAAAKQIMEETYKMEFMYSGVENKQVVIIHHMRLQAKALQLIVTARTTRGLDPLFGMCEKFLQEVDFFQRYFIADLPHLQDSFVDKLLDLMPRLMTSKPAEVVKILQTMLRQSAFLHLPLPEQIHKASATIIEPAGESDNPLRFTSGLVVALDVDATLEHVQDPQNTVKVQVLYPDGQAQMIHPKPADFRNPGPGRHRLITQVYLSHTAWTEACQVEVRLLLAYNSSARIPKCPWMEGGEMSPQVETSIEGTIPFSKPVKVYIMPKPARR

2 substances from paper doi:10.1101/2024.11.26.625369 can be followed below.

No constants are given. Whether binding was seen depends on the method and setting. In cells and extracts the contact can be indirect. Some entries that bind do so weakly or less than the wild type.

Turning to “Integrator subunit 8 (INTS8) (from UniProt Q75QN2 1-995)”, the binding entry is recorded as “binds”.

For “Integrator subunit INTS4 (from UniProt Q96HW7 1-963)”, the binding entry is given as “binds”.
